# PubChem BioAssay AID1259327 – Drosophila RNAi Screening Center | 2017
# Purpose: 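Baseline ATP after transmembrane-protein gene knock-down with water vehicle only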
# System: Drosophila S2R+ cells
# Reagent: long dsRNA against Drosophila genes
# Duration: 5 days (water added on day 4, read one day later)
# Challenge: water added as vehicle, no metal, one day before read-out
# Measurement: 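Total ATP measured by luciferase light, scaled to plate mean, duplicates averaged, then z-scored across plates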
# Reading the numbers: ATP z-score: higher = more total ATP than typical wells; ATP luminescence: higher = more total ATP
# Active means: 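a hit is any knock-down whose absolute ATP z-score is greater than 1.5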
# Calls: active = hit: ATP up or down; inactive = no clear ATP change
# In all, the deposit lists about 3,100 reagents; shown is a part drawn at random. 378 of all reagents (12%) were called active. 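Hits include both directions; z-score sign shows ATP rise or fall; raw luminescence values are not plate-normalised.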 Reagents against one gene are numbered here. A plus sign joins genes that one reagent is predicted to hit. Not stated in the record: the amount of reagent.
target,reagent,"ATP z-score, duplicate mean","ATP luminescence, replicate 1 (RLU)","ATP luminescence, replicate 2 (RLU)",call
pyx (pyrexia),1,0.18,6.45e5,8.87e5,inactive
pyx (pyrexia),2,1.08,7.87e5,7.90e5,inactive
sbm (sobremesa),1,-1.61,4.86e5,7.43e5,active
Ent1 (Equilibrative nucleoside transporter 1),1,-1.7,3.52e5,3.69e5,active
beta4GalT7 (beta-4-galactosyltransferase 7),1,-0.25,2.59e5,8.09e5,inactive
Ir76a (Ionotropic receptor 76a),1,-4,3.06e5,3.02e5,active
ppk12 (pickpocket 12),1,-0.901,5.83e5,6.77e5,inactive
ppk12 (pickpocket 12),2,2.64,5.52e5,7.41e5,active
Tsp42Ee (Tetraspanin 42Ee),1,1.79,7.84e5,7.79e5,active
Tsp42Ee (Tetraspanin 42Ee),2,1.1,8.55e5,1.04e6,inactive
Vha100-5 (Vacuolar H[+] ATPase 100kD subunit 5),1,0.806,8.19e5,8.05e5,inactive
Vha100-5 (Vacuolar H[+] ATPase 100kD subunit 5),2,3.36,3.88e5,7.73e5,active
CG18549,1,-0.676,2.78e5,6.64e5,inactive
CG18549,2,-0.161,7.89e5,8.16e5,inactive
Osi18 (Osiris 18),1,0.509,9.95e5,9.31e5,inactive
CG43155,1,1.48,5.83e5,7.89e5,inactive
CG14420,1,-0.755,6.89e5,8.13e5,inactive
CG14420,2,-0.394,8.62e5,9.82e5,inactive
ppk6 (pickpocket 6),1,0.0108,5.25e5,7.17e5,inactive
ppk6 (pickpocket 6),2,-1.69,3.55e5,5.35e5,active
CG10444,1,-1.02,6.34e5,6.09e5,inactive
CG10444,2,3.72,7.44e5,6.90e5,active
rut (rutabaga),1,2.81,7.73e5,8.63e5,active
Gr8a (Gustatory receptor 8a),1,-0.541,7.36e5,7.41e5,inactive
Arl6IP1 (ADP-ribosylation factor-like 6 interacting protein 1),1,0.228,3.12e5,7.80e5,inactive
Arl6IP1 (ADP-ribosylation factor-like 6 interacting protein 1),2,-2.43,3.19e5,2.66e5,active
frj (farjavit),1,1.03,5.66e5,5.35e5,inactive
frj (farjavit),2,-0.859,3.89e5,4.25e5,inactive
CG13794,1,-1.14,6.09e5,6.01e5,inactive
CG13794,2,-0.94,8.39e5,9.60e5,inactive
Ir64a (Ionotropic receptor 64a),1,-0.189,9.08e5,8.35e5,inactive
Ir64a (Ionotropic receptor 64a),2,-0.0212,4.87e5,4.40e5,inactive
CG33233,1,-0.109,5.37e5,6.82e5,inactive
CG33233,2,-0.61,3.84e5,4.65e5,inactive
CG17660,1,-0.282,4.57e5,4.61e5,inactive
CG17660,2,0.772,4.91e5,5.45e5,inactive
Spase12 + CG2006,1,0.631,7.42e5,7.75e5,inactive
Ac76E (Adenylyl cyclase 76E),1,2.12,6.44e5,6.62e5,active
Ac76E (Adenylyl cyclase 76E),2,-1.99,5.01e5,5.35e5,active
CG4928,1,1.72,8.68e5,8.98e5,active
CG4928,2,2.26,1.11e6,1.08e6,active
CG11857,1,-1.6,2.59e5,5.09e5,active
CG12376,1,0.374,9.45e5,7.97e5,inactive
CG12376,2,-2.03,3.02e5,3.34e5,active
Ir7f (Ionotropic receptor 7f),1,0.434,8.92e5,6.81e5,inactive
Tsp42En (Tetraspanin 42En),1,0.222,6.08e5,6.72e5,inactive
CG3339,1,0.0913,9.13e5,9.03e5,inactive
CG3339,2,-1.68,4.69e5,6.37e5,active
MstProx,1,-0.349,5.13e5,9.21e5,inactive
MstProx,2,-0.29,7.06e5,7.17e5,inactive
jagn (jagunal),1,-0.109,7.28e5,7.11e5,inactive
jagn (jagunal),2,-0.579,3.94e5,4.86e5,inactive
Kr-h2 (Kruppel homolog 2),1,-0.394,6.55e5,7.13e5,inactive
Kr-h2 (Kruppel homolog 2),2,-0.795,4.04e5,4.18e5,inactive
Or94b (Odorant receptor 94b),1,1.39,3.49e5,9.43e5,inactive
Or94b (Odorant receptor 94b),2,1.93,8.77e5,1.19e6,active
Fitm (Fat storage inducing transmembrane protein),1,-0.713,6.75e5,6.34e5,inactive
Fitm (Fat storage inducing transmembrane protein),2,0.136,8.59e5,8.20e5,inactive
Stt3A,1,-0.291,6.94e5,6.58e5,inactive
Stt3A,2,0.242,9.20e5,7.90e5,inactive
"mAChR-A (muscarinic Acetylcholine Receptor, A-type)",1,-0.952,7.25e5,6.93e5,inactive
CG33110,1,-0.794,2.53e5,7.03e5,inactive
CG33110,2,1.38,6.88e5,7.05e5,inactive
CG32447,1,0.648,8.28e5,7.72e5,inactive
CG32447,2,0.755,1.03e6,9.65e5,inactive
ppk20 (pickpocket 20),1,1.12,7.22e5,6.87e5,inactive
ppk20 (pickpocket 20),2,-0.192,8.32e5,7.70e5,inactive
zyd (zydeco),1,-1.07,5.90e5,6.65e5,inactive
zyd (zydeco),2,0.0346,4.86e5,4.26e5,inactive
